Reference: PMC10932545
Read-outs that look alike come from different tables or passages of the source. Results are given in words; binding and its absence hold for the method and conditions named. In cells and extracts the contact can be indirect. These calls come from enrichment with a bait or labelling near it, and not all partners need be listed. Where a sequence is shown, tags or fusion partners need not be part of it.

By UniProt entry, the sequences of proteins in these tests, tags left out.
UniProt Q9JMB7: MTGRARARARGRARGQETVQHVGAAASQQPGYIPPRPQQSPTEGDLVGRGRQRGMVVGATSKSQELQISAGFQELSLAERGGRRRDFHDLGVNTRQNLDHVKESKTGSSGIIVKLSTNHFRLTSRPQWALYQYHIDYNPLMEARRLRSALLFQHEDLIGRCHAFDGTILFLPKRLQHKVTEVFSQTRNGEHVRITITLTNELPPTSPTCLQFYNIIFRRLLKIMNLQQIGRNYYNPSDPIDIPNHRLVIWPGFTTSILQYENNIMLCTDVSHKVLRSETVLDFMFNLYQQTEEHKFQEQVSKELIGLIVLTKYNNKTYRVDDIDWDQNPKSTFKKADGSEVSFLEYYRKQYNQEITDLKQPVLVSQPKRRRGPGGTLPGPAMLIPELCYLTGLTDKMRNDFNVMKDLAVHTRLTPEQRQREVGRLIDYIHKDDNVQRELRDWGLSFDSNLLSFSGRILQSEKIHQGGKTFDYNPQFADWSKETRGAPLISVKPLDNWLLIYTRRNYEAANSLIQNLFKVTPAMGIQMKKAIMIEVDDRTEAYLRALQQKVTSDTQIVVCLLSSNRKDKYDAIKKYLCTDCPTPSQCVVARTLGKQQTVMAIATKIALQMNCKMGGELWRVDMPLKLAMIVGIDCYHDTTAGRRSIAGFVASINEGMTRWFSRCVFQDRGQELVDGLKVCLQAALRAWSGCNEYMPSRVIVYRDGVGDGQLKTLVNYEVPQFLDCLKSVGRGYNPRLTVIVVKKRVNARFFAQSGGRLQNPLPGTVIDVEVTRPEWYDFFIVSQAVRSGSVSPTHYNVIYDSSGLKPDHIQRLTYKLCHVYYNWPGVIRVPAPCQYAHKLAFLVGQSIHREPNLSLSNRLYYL
UniProt Q62093: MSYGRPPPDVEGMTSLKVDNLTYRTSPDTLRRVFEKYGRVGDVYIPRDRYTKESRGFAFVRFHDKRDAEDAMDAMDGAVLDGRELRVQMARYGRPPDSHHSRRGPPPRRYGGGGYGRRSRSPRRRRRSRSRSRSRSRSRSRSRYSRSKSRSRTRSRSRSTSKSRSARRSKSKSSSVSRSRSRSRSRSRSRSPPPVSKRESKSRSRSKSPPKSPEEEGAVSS

T1: FBXO24-HA (FBXO24 with a C-terminal HA epitope tag, from Fbxo24-HA-tagged transgenic mice) (mouse) (UniProt Q9D417)
T1 sequence: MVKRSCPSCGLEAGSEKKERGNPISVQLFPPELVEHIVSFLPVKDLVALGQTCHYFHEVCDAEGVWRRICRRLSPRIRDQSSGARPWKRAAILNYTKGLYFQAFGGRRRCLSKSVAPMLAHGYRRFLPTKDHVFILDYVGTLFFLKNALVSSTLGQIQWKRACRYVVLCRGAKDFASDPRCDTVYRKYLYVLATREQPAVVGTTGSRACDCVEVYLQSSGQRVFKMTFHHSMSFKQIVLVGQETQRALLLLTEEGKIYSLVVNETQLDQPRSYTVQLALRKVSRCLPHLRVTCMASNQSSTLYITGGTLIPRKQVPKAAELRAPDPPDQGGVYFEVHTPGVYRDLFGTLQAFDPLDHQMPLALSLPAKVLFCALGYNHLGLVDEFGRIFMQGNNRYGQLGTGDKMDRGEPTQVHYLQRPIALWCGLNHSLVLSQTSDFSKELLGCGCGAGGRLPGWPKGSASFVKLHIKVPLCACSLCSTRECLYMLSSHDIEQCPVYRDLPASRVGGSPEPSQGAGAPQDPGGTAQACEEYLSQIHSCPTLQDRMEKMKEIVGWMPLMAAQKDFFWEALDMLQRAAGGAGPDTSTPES


Experiments:
[1] = target: T1, FBXO24-HA (FBXO24 with a C-terminal HA epitope tag, from Fbxo24-HA-tagged transgenic mice) (mouse); assay: affinity purification with mass spectrometry; IP-MS with the HA antibody from testes (FBXO24-HA as bait)
[2] = target: T1, FBXO24-HA (FBXO24 with a C-terminal HA epitope tag, from Fbxo24-HA-tagged transgenic mice) (mouse); assay: as above; remark: listed apart in the source

| binding [1] | binding [2] | Molecule |
| --- | --- | --- |
| binds | – | MIWI (from UniProt Q9JMB7 1-862) |
| binds | – | SRSF2 (from UniProt Q62093 1-221) |
| – | binds | SRSF3 (protein, UniProt P84104 1-164) MHRDSCPLDCKVYVGNLGNNGNKTELERAFGYYGPLRSVWVARNPPGFAFVEFEDPRDAADAVRELDGRTLCGCRVRVELSNGEKRSRNRGPPPSWGRRPRDDYRRRSPPPRRRSPRRRSFSRSRSRSLSRDRRRERSLSRERNHKPSRSFSRSRSRSRSNERK |
